Counter-ions that a name gives are not always drawn. This is one part of the list. The calls rarely recur for the same compound in another form.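 In K562 cells expressing nanoluciferase-fused kinases, luminescence was recorded at 4 h intervals between 2 and 18 h, normalized as percent of control with DMSO at 100% and a positive control at 0%. A significant (2 sigma) signal drop marks a time point as decreased. The authors' rule for a hit is not shown and takes in more than the number of time points.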
Columns and labels:
Test in all cases: kinase-Nluc reporter destabilization hit call (1 = scored as downregulated) (binary); higher = compound decreases kinase abundance
Settings in all cases: K562; 2-18 h
EGFR = EGFR (UniProt P00533)
EGFR_G719S = EGFR_G719S (UniProt P00533)
EGFR_G719S_T790M = EGFR_G719S_T790M (UniProt P00533)
EGFR_L718V = EGFR_L718V (UniProt P00533)
EGFR_L858R = EGFR_L858R (UniProt P00533)
EGFR_L861Q = EGFR_L861Q (UniProt P00533)
EGFR_T790M = EGFR_T790M (UniProt P00533)
EPHA2 = EPHA2 (UniProt P29317)
ERBB3 = ERBB3 (UniProt P21860)
[1] = target: ERBB4_R711C (clone: ERBB4_mut) (UniProt Q15303)

By UniProt entry, the sequences of proteins in these tests, tags left out.
UniProt P29317, whole entry: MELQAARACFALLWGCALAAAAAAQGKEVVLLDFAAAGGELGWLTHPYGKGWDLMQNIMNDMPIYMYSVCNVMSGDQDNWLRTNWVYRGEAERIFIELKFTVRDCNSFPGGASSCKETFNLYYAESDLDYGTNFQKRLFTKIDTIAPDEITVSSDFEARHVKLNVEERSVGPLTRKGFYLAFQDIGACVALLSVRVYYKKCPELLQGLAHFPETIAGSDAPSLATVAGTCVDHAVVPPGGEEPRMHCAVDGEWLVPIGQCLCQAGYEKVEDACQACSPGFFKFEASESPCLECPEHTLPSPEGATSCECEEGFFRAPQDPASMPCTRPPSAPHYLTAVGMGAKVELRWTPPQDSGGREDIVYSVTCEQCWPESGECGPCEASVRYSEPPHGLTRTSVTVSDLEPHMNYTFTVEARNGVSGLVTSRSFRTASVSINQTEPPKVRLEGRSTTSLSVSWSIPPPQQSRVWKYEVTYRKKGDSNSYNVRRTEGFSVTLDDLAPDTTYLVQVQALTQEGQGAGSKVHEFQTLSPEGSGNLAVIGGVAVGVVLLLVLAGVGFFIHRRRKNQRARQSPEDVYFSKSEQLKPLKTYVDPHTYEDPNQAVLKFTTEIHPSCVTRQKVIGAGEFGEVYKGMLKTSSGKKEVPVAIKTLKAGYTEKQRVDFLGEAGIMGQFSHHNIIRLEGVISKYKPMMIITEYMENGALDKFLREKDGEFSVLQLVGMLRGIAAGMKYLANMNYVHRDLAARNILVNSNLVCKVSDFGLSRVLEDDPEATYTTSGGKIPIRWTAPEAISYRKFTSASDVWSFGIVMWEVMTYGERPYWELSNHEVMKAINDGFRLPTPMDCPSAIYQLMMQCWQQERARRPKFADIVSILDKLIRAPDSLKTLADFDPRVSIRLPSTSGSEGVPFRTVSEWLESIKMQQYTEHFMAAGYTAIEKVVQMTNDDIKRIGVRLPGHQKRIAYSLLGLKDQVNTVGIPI
UniProt P21860, whole entry: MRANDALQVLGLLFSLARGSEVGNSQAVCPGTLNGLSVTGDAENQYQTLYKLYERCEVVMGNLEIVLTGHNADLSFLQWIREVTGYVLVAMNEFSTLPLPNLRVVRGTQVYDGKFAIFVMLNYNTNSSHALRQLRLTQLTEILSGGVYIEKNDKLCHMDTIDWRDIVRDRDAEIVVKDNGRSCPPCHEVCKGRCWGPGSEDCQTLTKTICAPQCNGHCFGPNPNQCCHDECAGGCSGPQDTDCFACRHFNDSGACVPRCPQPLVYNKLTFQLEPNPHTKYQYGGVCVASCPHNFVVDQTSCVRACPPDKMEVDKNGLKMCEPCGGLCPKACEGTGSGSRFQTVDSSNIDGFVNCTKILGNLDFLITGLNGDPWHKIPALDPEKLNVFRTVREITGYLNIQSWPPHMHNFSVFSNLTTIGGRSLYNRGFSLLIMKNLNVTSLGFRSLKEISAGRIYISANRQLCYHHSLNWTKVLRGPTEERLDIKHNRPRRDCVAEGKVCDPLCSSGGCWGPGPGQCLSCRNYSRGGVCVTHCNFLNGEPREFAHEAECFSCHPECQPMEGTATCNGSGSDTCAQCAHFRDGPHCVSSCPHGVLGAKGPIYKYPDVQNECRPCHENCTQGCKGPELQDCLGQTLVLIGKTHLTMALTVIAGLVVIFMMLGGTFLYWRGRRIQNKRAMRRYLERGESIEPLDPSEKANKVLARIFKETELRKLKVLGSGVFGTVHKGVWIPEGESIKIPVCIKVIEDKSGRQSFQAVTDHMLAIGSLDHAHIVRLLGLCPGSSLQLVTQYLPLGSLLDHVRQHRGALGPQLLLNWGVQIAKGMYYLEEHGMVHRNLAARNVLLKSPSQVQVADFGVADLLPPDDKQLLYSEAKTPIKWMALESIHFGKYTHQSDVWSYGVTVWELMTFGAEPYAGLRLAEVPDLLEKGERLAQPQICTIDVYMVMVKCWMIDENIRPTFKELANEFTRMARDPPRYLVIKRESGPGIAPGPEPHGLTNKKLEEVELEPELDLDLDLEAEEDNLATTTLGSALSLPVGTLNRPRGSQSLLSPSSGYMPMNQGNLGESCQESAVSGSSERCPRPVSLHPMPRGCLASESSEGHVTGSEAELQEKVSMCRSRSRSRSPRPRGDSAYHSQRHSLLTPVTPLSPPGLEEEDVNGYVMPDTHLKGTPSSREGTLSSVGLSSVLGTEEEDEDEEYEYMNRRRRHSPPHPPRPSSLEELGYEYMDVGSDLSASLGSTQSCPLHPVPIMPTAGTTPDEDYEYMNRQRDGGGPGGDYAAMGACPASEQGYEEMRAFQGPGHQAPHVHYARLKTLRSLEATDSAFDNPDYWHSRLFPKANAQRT
UniProt Q15303, whole entry R711C: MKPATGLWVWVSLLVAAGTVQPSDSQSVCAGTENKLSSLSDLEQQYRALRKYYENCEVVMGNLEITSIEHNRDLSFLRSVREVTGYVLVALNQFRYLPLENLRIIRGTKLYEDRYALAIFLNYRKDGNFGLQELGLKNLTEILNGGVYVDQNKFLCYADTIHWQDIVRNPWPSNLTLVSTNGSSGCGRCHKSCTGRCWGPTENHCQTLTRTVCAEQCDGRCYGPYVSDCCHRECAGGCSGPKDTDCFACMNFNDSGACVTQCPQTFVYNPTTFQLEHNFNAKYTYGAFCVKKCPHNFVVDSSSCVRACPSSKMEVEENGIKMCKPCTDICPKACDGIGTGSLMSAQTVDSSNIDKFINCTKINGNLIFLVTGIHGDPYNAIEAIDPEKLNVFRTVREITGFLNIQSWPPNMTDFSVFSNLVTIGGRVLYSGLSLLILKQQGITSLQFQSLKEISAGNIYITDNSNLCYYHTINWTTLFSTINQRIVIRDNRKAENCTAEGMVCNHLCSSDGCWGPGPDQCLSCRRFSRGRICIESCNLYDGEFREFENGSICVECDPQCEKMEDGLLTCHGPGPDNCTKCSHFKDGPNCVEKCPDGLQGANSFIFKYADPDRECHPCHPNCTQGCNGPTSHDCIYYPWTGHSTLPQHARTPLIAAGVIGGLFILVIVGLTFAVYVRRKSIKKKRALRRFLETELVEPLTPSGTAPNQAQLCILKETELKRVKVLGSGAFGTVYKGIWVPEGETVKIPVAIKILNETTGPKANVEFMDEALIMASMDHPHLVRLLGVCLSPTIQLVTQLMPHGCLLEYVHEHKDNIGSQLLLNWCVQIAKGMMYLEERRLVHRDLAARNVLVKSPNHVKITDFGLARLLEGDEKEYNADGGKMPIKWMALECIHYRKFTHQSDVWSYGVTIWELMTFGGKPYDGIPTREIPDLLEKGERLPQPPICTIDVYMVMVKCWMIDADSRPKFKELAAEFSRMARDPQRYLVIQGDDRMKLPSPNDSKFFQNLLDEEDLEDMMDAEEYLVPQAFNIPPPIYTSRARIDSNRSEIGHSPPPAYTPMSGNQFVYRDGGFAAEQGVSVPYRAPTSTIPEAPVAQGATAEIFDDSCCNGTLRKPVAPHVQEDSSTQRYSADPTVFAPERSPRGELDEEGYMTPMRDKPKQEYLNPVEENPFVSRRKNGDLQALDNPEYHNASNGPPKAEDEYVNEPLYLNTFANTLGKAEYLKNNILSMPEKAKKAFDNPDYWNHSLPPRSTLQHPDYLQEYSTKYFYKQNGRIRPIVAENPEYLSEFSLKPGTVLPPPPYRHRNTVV

Compound | kinase-Nluc reporter destabilization hit call (EGFR) | kinase-Nluc reporter destabilization hit call (EGFR_G719S) | kinase-Nluc reporter destabilization hit call (EGFR_G719S_T790M) | kinase-Nluc reporter destabilization hit call (EGFR_L718V) | kinase-Nluc reporter destabilization hit call (EGFR_L858R) | kinase-Nluc reporter destabilization hit call (EGFR_L861Q) | kinase-Nluc reporter destabilization hit call (EGFR_T790M) | kinase-Nluc reporter destabilization hit call (EPHA2) | kinase-Nluc reporter destabilization hit call (ERBB3) | kinase-Nluc reporter destabilization hit call [1]
CCN1CCN(Cc2cnc(Nc3cc(-c4cc(F)c5nc(C)n(C(C)C)c5c4)c(F)cn3)nc2)CC1 (10 µM) | inactive: 0 | inactive: 0 | inactive: 0 | inactive: 0 | inactive: 0 | inactive: 0 | inactive: 0 | inactive: 0 | inactive: 0 | inactive: 0
O=Nc1c(-c2c(O)[nH]c3cc(Br)ccc23)[nH]c2ccccc12 [GSK 3 Inhibitor IX] (2.5 µM) | inactive: 0 | inactive: 0 | inactive: 0 | inactive: 0 | inactive: 0 | inactive: 0 | inactive: 0 | inactive: 0 | inactive: 0 | inactive: 0
C[C@H]1O[C@@H](O[C@H]2CC[C@@]3(C)[C@@H](CC[C@]4(C)[C@@H]3C=C[C@]35OC[C@@]6(CCC(C)(C)C[C@H]63)[C@H](O)C[C@]54C)[C@]2(C)CO)[C@H](O)[C@@H](O[C@@H]2O[C@H](CO)[C@@H](O)[C@H](O)[C@H]2O)[C@H]1O [Saikosaponin D] (2.5 µM) | inactive: 0 | inactive: 0 | inactive: 0 | inactive: 0 | inactive: 0 | inactive: 0 | inactive: 0 | inactive: 0 | inactive: 0 | inactive: 0
O=C(Nc1cccnc1)c1cc(-c2ccnc(F)c2)ccc1OCc1ccccc1 (10 µM) | inactive: 0 | inactive: 0 | inactive: 0 | inactive: 0 | inactive: 0 | inactive: 0 | inactive: 0 | inactive: 0 | inactive: 0 | inactive: 0
O=C1Nc2ccc(I)cc2/C1=C/c1cc(Br)c(O)c(Br)c1 (10 µM) | inactive: 0 | inactive: 0 | inactive: 0 | inactive: 0 | inactive: 0 | inactive: 0 | inactive: 0 | inactive: 0 | inactive: 0 | inactive: 0
Cc1cccc(COc2cccc(/C=C3\C(=O)NN(c4ccccc4)C3=O)c2)c1 (10 µM) | inactive: 0 | inactive: 0 | inactive: 0 | inactive: 0 | inactive: 0 | inactive: 0 | inactive: 0 | inactive: 0 | inactive: 0 | inactive: 0
Cc1cc([C@@H](C)Nc2ccccc2C(=O)O)c2nc(N3CCOCC3)cc(=O)n2c1 (10 µM) | inactive: 0 | inactive: 0 | inactive: 0 | inactive: 0 | inactive: 0 | inactive: 0 | inactive: 0 | inactive: 0 | inactive: 0 | inactive: 0
COc1ccc2c3n(c(=NC(=O)c4cccnc4)nc2c1OC)CCN3 (2 µM) | inactive: 0 | inactive: 0 | inactive: 0 | inactive: 0 | inactive: 0 | inactive: 0 | inactive: 0 | inactive: 0 | inactive: 0 | inactive: 0
O=C(NCCO)c1cc(C(=O)NCCO)cc(C(=O)NCCO)c1 (10 µM) | inactive: 0 | inactive: 0 | inactive: 0 | inactive: 0 | inactive: 0 | inactive: 0 | inactive: 0 | inactive: 0 | inactive: 0 | inactive: 0
CCN(CC)CCCC(C)Nc1nc(C)cc(Nc2ccc3nc(C)cc(N)c3c2)n1 (stereo not given) (10 µM) | inactive: 0 | inactive: 0 | inactive: 0 | inactive: 0 | inactive: 0 | inactive: 0 | inactive: 0 | inactive: 0 | inactive: 0 | inactive: 0
NCC1CCC(CNc2nc(NCc3ccccc3OC(F)(F)F)ncc2[N+](=O)[O-])CC1 (stereo not given) [PKC-theta inhibitor] (10 µM) | inactive: 0 | inactive: 0 | inactive: 0 | inactive: 0 | inactive: 0 | inactive: 0 | inactive: 0 | active: 1 | active: 1 | active: 1
CC(C)CCN1c2nc(Nc3cc(F)c(O)c(F)c3)ncc2N(C)C(=O)C1C (stereo not given) (2.5 µM) | inactive: 0 | inactive: 0 | inactive: 0 | inactive: 0 | inactive: 0 | inactive: 0 | inactive: 0 | inactive: 0 | inactive: 0 | inactive: 0
O=C(O)c1cc(N(Cc2ccccc2O)Cc2cc(O)ccc2O)ccc1O [Lavendustin A] (10 µM) | inactive: 0 | inactive: 0 | inactive: 0 | inactive: 0 | inactive: 0 | inactive: 0 | inactive: 0 | inactive: 0 | inactive: 0 | inactive: 0
COc1ccc(-c2cc(=O)c3c(OC)cc(OC)c(OC)c3o2)cc1 [6-Demethoxytangeretin] (10 µM) | inactive: 0 | inactive: 0 | inactive: 0 | inactive: 0 | inactive: 0 | inactive: 0 | inactive: 0 | inactive: 0 | inactive: 0 | inactive: 0
N#Cc1ccc2ncnc(NCCc3ccccc3)c2c1 [Senexin A] (10 µM) | inactive: 0 | inactive: 0 | inactive: 0 | inactive: 0 | inactive: 0 | inactive: 0 | inactive: 0 | inactive: 0 | inactive: 0 | inactive: 0
Cc1cc(Nc2cc(N3CCN(C)CC3)nc(Nc3ccc([N+](=O)[O-])cc3)n2)n[nH]1 (2.5 µM) | inactive: 0 | inactive: 0 | inactive: 0 | inactive: 0 | inactive: 0 | inactive: 0 | inactive: 0 | inactive: 0 | inactive: 0 | inactive: 0
COc1ccc(Br)cc1NC(=O)Nc1cccc2c1ccn2Cc1ccnc(N)c1 (2.5 µM) | inactive: 0 | inactive: 0 | inactive: 0 | inactive: 0 | inactive: 0 | inactive: 0 | inactive: 0 | inactive: 0 | inactive: 0 | inactive: 0
O=C(Nc1cc(Cl)cc2c1[nH]c1cnccc12)c1cccnc1 (10 µM) | inactive: 0 | inactive: 0 | inactive: 0 | inactive: 0 | inactive: 0 | inactive: 0 | inactive: 0 | inactive: 0 | inactive: 0 | inactive: 0
Cc1nc[nH]c1CN1CCN(C(=O)N[C@@H](CC(C)C)C(=O)O)[C@@H](Cc2ccccc2)C1=O (10 µM) | inactive: 0 | inactive: 0 | inactive: 0 | inactive: 0 | inactive: 0 | inactive: 0 | inactive: 0 | inactive: 0 | inactive: 0 | inactive: 0
CO[C@H]1C[C@@H]2CC[C@@H](C)[C@@](O)(O2)C(=O)C(=O)N2CCCC[C@H]2C(=O)O[C@H]([C@H](C)C[C@@H]2CC[C@@H](OCCO)[C@H](OC)C2)CC(=O)[C@H](C)/C=C(\C)[C@@H](O)[C@@H](OC)C(=O)[C@H](C)C[C@H](C)/C=C/C=C/C=C/1C [Everolimus] (10 µM) | inactive: 0 | inactive: 0 | inactive: 0 | inactive: 0 | inactive: 0 | inactive: 0 | inactive: 0 | inactive: 0 | inactive: 0 | inactive: 0
CC(O)(C#Cc1ccc2c(c1)N(c1nc(N)ncc1Cl)CC2)c1nccs1 (stereo not given) (2.5 µM) | inactive: 0 | inactive: 0 | inactive: 0 | inactive: 0 | inactive: 0 | inactive: 0 | inactive: 0 | inactive: 0 | inactive: 0 | inactive: 0
COc1cc(-c2cc(-c3ccc(N4CCNCC4)cc3)cnc2C)cc(OC)c1OC (10 µM) | inactive: 0 | inactive: 0 | inactive: 0 | inactive: 0 | inactive: 0 | inactive: 0 | inactive: 0 | inactive: 0 | inactive: 0 | inactive: 0
O=C(Nc1cccc(-c2nc(-c3ccc(NC(=O)c4cccnc4)cc3Cl)no2)c1)Nc1ccc(NC(=O)C2CC2)c(C(F)(F)F)c1 (2.5 µM) | inactive: 0 | inactive: 0 | inactive: 0 | inactive: 0 | inactive: 0 | inactive: 0 | inactive: 0 | inactive: 0 | inactive: 0 | inactive: 0
Cc1cc(C)cc(NC(N)=Nc2ccccc2C(F)(F)F)c1 (10 µM) | inactive: 0 | inactive: 0 | inactive: 0 | inactive: 0 | inactive: 0 | inactive: 0 | inactive: 0 | inactive: 0 | inactive: 0 | inactive: 0
COC(=O)[C@H](CCSC)NC(=O)c1ccc(NC[C@@H](N)CS)cc1-c1ccccc1 [FTI-277 (hydrochloride)] (10 µM) | inactive: 0 | inactive: 0 | inactive: 0 | inactive: 0 | inactive: 0 | inactive: 0 | inactive: 0 | inactive: 0 | inactive: 0 | inactive: 0
N#Cc1cnc2c(Cl)cc(NCc3cn(CCN4CCCCCC4)nn3)cc2c1Nc1ccc(F)c(Cl)c1 [Cot inhibitor-1] (10 µM) | inactive: 0 | inactive: 0 | inactive: 0 | inactive: 0 | inactive: 0 | inactive: 0 | inactive: 0 | inactive: 0 | inactive: 0 | inactive: 0
CO[C@H]1CC[C@H](N2C(=O)CNc3ncc(-c4ccc(C(C)(C)O)nc4)nc32)CC1 (2.5 µM) | inactive: 0 | inactive: 0 | inactive: 0 | inactive: 0 | inactive: 0 | inactive: 0 | inactive: 0 | inactive: 0 | inactive: 0 | inactive: 0
COc1cc2ncnc(Nc3cccc(I)c3)c2cc1OC (2.5 µM) | inactive: 0 | inactive: 0 | inactive: 0 | inactive: 0 | inactive: 0 | inactive: 0 | inactive: 0 | inactive: 0 | inactive: 0 | inactive: 0
CCC(=O)Nc1cccc(Oc2nc(Nc3ccc(N4CCN(C)CC4)cc3OC)ncc2Cl)c1 (10 µM) | inactive: 0 | inactive: 0 | inactive: 0 | inactive: 0 | inactive: 0 | inactive: 0 | inactive: 0 | inactive: 0 | inactive: 0 | inactive: 0

Reprinted at random: 2 records from the list.
Compound | kinase-Nluc reporter destabilization hit call (EGFR) | kinase-Nluc reporter destabilization hit call (EGFR_G719S) | kinase-Nluc reporter destabilization hit call (EGFR_G719S_T790M) | kinase-Nluc reporter destabilization hit call (EGFR_L718V) | kinase-Nluc reporter destabilization hit call (EGFR_L858R) | kinase-Nluc reporter destabilization hit call (EGFR_L861Q) | kinase-Nluc reporter destabilization hit call (EGFR_T790M) | kinase-Nluc reporter destabilization hit call (EPHA2) | kinase-Nluc reporter destabilization hit call (ERBB3) | kinase-Nluc reporter destabilization hit call [1]
O=C(Nc1cc(Cl)cc2c1[nH]c1cnccc12)c1cccnc1 (10 µM) | inactive: 0 | inactive: 0 | inactive: 0 | inactive: 0 | inactive: 0 | inactive: 0 | inactive: 0 | inactive: 0 | inactive: 0 | inactive: 0
O=C(Nc1cccc(-c2nc(-c3ccc(NC(=O)c4cccnc4)cc3Cl)no2)c1)Nc1ccc(NC(=O)C2CC2)c(C(F)(F)F)c1 (2.5 µM) | inactive: 0 | inactive: 0 | inactive: 0 | inactive: 0 | inactive: 0 | inactive: 0 | inactive: 0 | inactive: 0 | inactive: 0 | inactive: 0
